Source: PubChem BioAssay AID504467 (National Center for Advancing Translational Sciences (NCATS), 2011)
The campaign covered roughly 330,000 compounds. About 7,700 (2.3%) were called active. The inconclusive results got no clear call from the source; some entries with a clear call stand among them for comparison. Calls follow the shape of the dose curve; as a rule, active = well fitted inhibition curve with a large enough effect; inconclusive = small, poorly fitted or top-dose-only effect, or effect the other way; inactive = flat fitted curve, though single readings scatter. A potency beside an inconclusive call is a rough fit, not a confirmed value.

Experiment: qHTS screen for small molecules that inhibit ELG1-dependent DNA repair in human embryonic kidney (HEK293T) cells expressing luciferase-tagged ELG1; also: nearly all actives have a fitted effect of over 55% in size
Details: HEK293T ELG1-luciferase reporter, luminescence, 16 h, DNA damage induced by 5-fluorouridine; activity change, negative = inhibition: at 46.1 µM (top of the series)
How it was run: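 Quantitative HTS, concentration-response format. 2,000 cells/well co-treated with 5-fluorouridine and compound, 16 hr in 5% CO2 at 37 °C; ONE-Glo luminescence read after 30 min.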
% is scaled to controls: 0 for no effect and ±100 for the full control effect; potency is read from the fitted curve at half-maximal effect.

With `CC1(C)C2([N+](=O)[O-])CN3CC1([N+](=O)[O-])CN(C2)C3C(O)C(O)C(O)CO` (stereo not given) as the molecule, how does the “activity change, negative = inhibition” value read?
Its value is inactive: 13.4%.

With `Cc1ccc(C)c(SCC(=O)Nc2oc(C)c3c(C)n[nH]c(=O)c23)c1` as the molecule, how does the Potency read?
Its Potency is inconclusive: 16.4 µM [inhibitor, single point].

For `COc1ccc(-c2cc(C(F)(F)F)nc(N3CCOCC3)n2)cc1OC`, which “activity change, negative = inhibition” value is on record?
Its value is inactive: -29.9%.

Which Potency does the source give for `CCOC(=O)c1c(NC(=O)CNC2CCCCC2)sc(C)c1C` here?
Its Potency is inconclusive: 23.1 µM [inhibitor, single point].

For `FC(F)(F)c1ccc(CN2C[C@@H]3C(c4ccccc4)C4(c5ccccc5)CC3(C4)[C@H]2c2ccccc2)cc1` (stereo not given in full), which Potency is on record?
The Potency was inconclusive: 29.1 µM [activator, single point].

For `COc1cc(OC)c2c(-c3ccccc3)cc(=O)oc2c1C(CCN1CCCC(C)C1)c1ccc(N(C)C)cc1` (stereo not given), which “activity change, negative = inhibition” value is on record?
The value was inactive: -13%.

For `O=c1c2c3c(sc2nc2n1CCC2)CCCC3`, which “activity change, negative = inhibition” value is on record?
Its value is inactive: 21.4%.

With `COc1ccc2oc(=O)c(C(=O)N3c4ccccc4CC3C)cc2c1` (stereo not given) as the molecule, how does the Potency read?
The Potency was inconclusive: 29.1 µM [inhibitor, single point].

With `Cc1cc(/C=C2\NC(=O)NC2=O)c(C)n1-c1ccc(N2CCOCC2)cc1` as the molecule, how does the Potency read?
The Potency was inconclusive: 29.1 µM [inhibitor, single point].

With `CN1CCN(S(=O)(=O)c2cc([N+](=O)[O-])ccc2N/N=C/c2ccc(Cl)cc2)CC1` as the molecule, how does the Potency read?
Its Potency is inconclusive: 32.6 µM [activator, partial curve, poor fit].

For `Cc1cc(C)c2c(=O)n(CC(=O)NC3CCCC3)sc2n1`, which “activity change, negative = inhibition” value is on record?
Its value is inactive: 0%.

With `Cc1ccc(NC(=O)N2CCCC2C(=O)NCc2ccc(Cl)cc2)cc1` (stereo not given) as the molecule, how does the “activity change, negative = inhibition” value read?
Its value is inactive: -7.53%.

For `CN(C)CCCN(C(=O)c1ccc(S(=O)(=O)N2CCCCC2)cc1)c1nc2cc3c(cc2s1)OCO3`, which Potency is on record?
Its Potency is inconclusive: 29.1 µM [inhibitor, single point].

Which “activity change, negative = inhibition” value does the source give for `O=c1cc(N2CCCCC2)c(-c2ccccc2)nn1Cc1ccccc1` here?
Its value is inactive: -16%.

For `O=[N+]([O-])CC1(n2nc3ccccc3n2)CCCCC1`, which Potency is on record?
Its Potency is inconclusive: 17.8 µM [activator, single point].

For `CC1(C)Cc2c(ccc3ccccc23)C(=O)N1`, which Potency is on record?
The Potency was inconclusive: 9.2 µM [inhibitor, partial curve].

With `CCOC(=O)c1cccc(-c2c(-c3ccccc3)ncc3cc(OC)c(OC)cc23)c1` as the molecule, how does the Potency read?
The Potency was inconclusive: 11.6 µM [inhibitor, partial curve, poor fit].

For `CCC1=NN(C(=O)CCc2ccc3c(c2)OCO3)C(O)(C(F)(F)F)C1` (stereo not given), which “activity change, negative = inhibition” value is on record?
The value was inactive: 5.43%.

For `Cc1nc2ccccn2c1-c1ccnc(SCc2ccc(Cl)cc2)n1`, which Potency is on record?
The Potency was inconclusive: 29.1 µM [inhibitor, single point].

With `O=C(NCCS(=O)(=O)c1ccc(Br)cc1)c1c(F)cccc1F` as the molecule, how does the “activity change, negative = inhibition” value read?
The value was inactive: 24.1%.

With `CC(=O)c1c(O)c(C)c(O)c2c1OC1=CC(=O)C(C(C)=O)C(=O)[C@@]12C` (stereo not given in full) as the molecule, how does the “activity change, negative = inhibition” value read?
The value was inactive: -8.22%.

Which Potency does the source give for `COc1cc2c(cc1NC(=O)COc1ccc3ccccc3c1)oc1ccccc12` here?
The Potency was inconclusive: 16.4 µM [activator, single point].

Which “activity change, negative = inhibition” value does the source give for `N=c1c(C(=O)NCCN2CCOCC2)cc2c(=O)n3ccccc3nc2n1CCc1ccccc1` here?
The value was inactive: 6.74%.

With `O=C(Cn1nc(C(=O)O)c2ccccc2c1=O)Nc1ccccc1C(F)(F)F` as the molecule, how does the “activity change, negative = inhibition” value read?
The value was inactive: 13.7%.

With `COc1ccc(CNC(=O)NCCc2c[nH]c3ccccc23)cc1` as the molecule, how does the Potency read?
The Potency was inconclusive: 23.1 µM [inhibitor, single point].

For `CCCCc1ncc(CN2CCC(CC3CCCCO3)(C(=O)OCC)CC2)[nH]1` (stereo not given), which “activity change, negative = inhibition” value is on record?
Its value is inactive: 7.41%.

With `COCCN(Cc1cc2cc3c(cc2nc1Cl)OCO3)C(=O)c1ccc(C)cc1` as the molecule, how does the Potency read?
The Potency was inconclusive: 1.16 µM [inhibitor, partial curve, poor fit].

With `Cc1cc(-n2nc3ccccc3n2)c(O)c([N+](=O)[O-])c1` as the molecule, how does the Potency read?
The Potency was inconclusive: 0.259 µM [inhibitor, single point].

Which “activity change, negative = inhibition” value does the source give for `NC(=O)c1ccc(NC(=O)CSc2cn(CC(=O)N3CCOCC3)c3ccccc23)cc1` here?
Its value is inactive: 14%.

With `NNc1nnc2c3cc(F)ccc3n(CCc3ccccc3)c2n1` as the molecule, how does the Potency read?
The Potency was active: 11.6 µM.

For `COC(=O)c1ccc(NC(=O)CN(c2ccc(C)cc2)S(=O)(=O)c2c(C)n[nH]c2C)cc1`, which Potency is on record?
The Potency was inconclusive: 14.6 µM [inhibitor, partial curve, poor fit].

Which Potency does the source give for `CCCn1c(N)c(C(=O)CSc2nnc(Cc3ccccc3)o2)c(=O)n(C)c1=O` here?
The Potency was active: 5.8 µM.

With `Cc1ccccc1Cn1c(=O)n(CCCC(=O)NCc2ccco2)c(=O)c2ccccc21` as the molecule, how does the Potency read?
The Potency was inconclusive: 16.4 µM [inhibitor, single point].

Which Potency does the source give for `CC(C)[C@@H](C(=O)N1CCNCC1)n1cc(CCO)nn1` here?
The Potency was inconclusive: 20.6 µM [inhibitor, partial curve, poor fit].

Which Potency does the source give for `CSc1ccccc1OCc1cc(C(=O)N2CCCC2c2nonc2C)no1` (stereo not given) here?
Its Potency is inconclusive: 9.2 µM [activator, partial curve].

For `COc1cc(OC)cc(C(=O)Nc2cc(-c3cn4cccnc4n3)ccc2C)c1`, which “activity change, negative = inhibition” value is on record?
Its value is inactive: 0.728%.

For `COc1cccc(/C=C/C(=O)Nc2ccc(N3CCOCC3)cc2)c1OC`, which Potency is on record?
Its Potency is inconclusive: 18.3 µM [activator, single point].

With `CN(C)S(=O)(=O)N1CCC(Oc2cccc(C(=O)NCCC3=CCCCC3)c2)CC1` as the molecule, how does the Potency read?
The Potency was active: 13 µM.

For `COC(=O)[C@@]12CCCCN1[C@H](c1ccc(-c3ccc(OC)cc3)cc1)[C@@H]1C(=O)N(C)C(=O)[C@@H]12`, which Potency is on record?
The Potency was inconclusive: 3.16 µM [inhibitor, single point].

With `Cc1cc(C)n2cc(CSc3nc4ccccc4[nH]3)nc2n1` as the molecule, how does the Potency read?
The Potency was inconclusive: 18.4 µM [activator, partial curve].

With `CCOC(=O)CC(NC(=O)Cn1nnc(-c2ccccc2C)n1)c1ccc(OC)cc1` (stereo not given) as the molecule, how does the Potency read?
Its Potency is inconclusive: 16.4 µM [inhibitor, partial curve, poor fit].

For `CCN(C[C@H]1N[C@@](Cc2ccccc2)(C(=O)OC)[C@H]2C(=O)N(Cc3ccccc3)C(=O)[C@@H]12)C(C)=O`, which “activity change, negative = inhibition” value is on record?
Its value is inactive: -2.31%.

For `C/C(=N/NC(=O)CSCc1ccc(Cl)cc1)c1cccc(NC(=O)c2ccccc2)c1`, which Potency is on record?
The Potency was inconclusive: 3.66 µM [inhibitor, single point].

For `Fc1c(F)c(F)c(CSc2nc3ccccc3[nH]2)c(F)c1F`, which Potency is on record?
The Potency was inconclusive: 35.5 µM [activator, single point].

With `S=c1[nH]ncn2c1cc1oc3ccccc3c12` as the molecule, how does the Potency read?
The Potency was inconclusive: 4.61 µM [activator, full curve].

With `CNC(=S)N1N=C2c3ccccc3CCC2C1c1ccccc1Cl` (stereo not given) as the molecule, how does the Potency read?
Its Potency is inconclusive: 16.4 µM [inhibitor, partial curve].

Which Potency does the source give for `COc1ccc(-n2nnnc2SCC(=O)Nc2ccccc2F)cc1` here?
The Potency was inconclusive: 1.26 µM [activator, single point].

With `CCOC(=O)C1=C(C)Nc2nc(C)nn2C1c1ccc(C)cc1` (stereo not given) as the molecule, how does the Potency read?
The Potency was inconclusive: 18.4 µM [activator, single point].

With `CCOC(=O)c1c(NC(=O)COC(=O)c2ccc(NC(=O)CC#N)cc2)sc(C(=O)NC)c1C` as the molecule, how does the Potency read?
Its Potency is inconclusive: 7.3 µM [inhibitor, partial curve].

With `O=C(N=C1SC2CS(=O)(=O)CC2N1c1cccc(Cl)c1Cl)C1CC1` (stereo not given) as the molecule, how does the “activity change, negative = inhibition” value read?
The value was inactive: 13.3%.

Which “activity change, negative = inhibition” value does the source give for `CN1C(=O)c2ccc(C(=O)NCc3ccco3)cc2C1=O` here?
Its value is inactive: 5.07%.

With `O=C(CSc1nc(-c2cccs2)cc(C(F)(F)F)n1)NCCCn1ccnc1` as the molecule, how does the “activity change, negative = inhibition” value read?
The value was inactive: -11.5%.

Which “activity change, negative = inhibition” value does the source give for `CC1CCCC(NC(=O)COC(=O)c2ccc(Cl)nc2)C1C` (stereo not given) here?
Its value is inactive: 6.44%.

With `Cc1ccc(C(=O)NCCN2CCOCC2)c(Cl)c1` as the molecule, how does the Potency read?
Its Potency is inconclusive: 20.6 µM [activator, partial curve].

With `Cn1cccc1-c1nc2ccccc2n1C` as the molecule, how does the Potency read?
Its Potency is inconclusive: 29.1 µM [activator, partial curve, poor fit].

With `CCN1CCN(c2nc(-c3ccncc3)nc3ccccc23)CC1` as the molecule, how does the “activity change, negative = inhibition” value read?
Its value is inactive: 0.161%.

With `CCOc1ccccc1C1c2[nH]c3ccccc3c2C[C@H]2C(=O)N(C3CCN(Cc4ccccc4)CC3)CC(=O)N12` (stereo not given in full) as the molecule, how does the Potency read?
The Potency was inconclusive: 20.6 µM [inhibitor, single point].

For `OCC1(Cc2cccc(F)c2)CCN(Cc2ccc3cccc(F)c3n2)CC1`, which “activity change, negative = inhibition” value is on record?
Its value is inactive: -3.08%.

Which Potency does the source give for `COc1ccc([N+](=O)[O-])cc1NCc1ccccc1` here?
The Potency was inconclusive: 10.3 µM [activator, partial curve].

With `O=C(Cn1nc(-c2ccccc2F)ccc1=O)Nc1ccc(S(=O)(=O)N2CCCCCC2)cc1` as the molecule, how does the Potency read?
The Potency was inconclusive: 20.6 µM [inhibitor, partial curve].

For `CCCN(CC(=O)Nc1ccccc1C)C(=O)C1CC(=O)N(c2ccc(CC)cc2)C1` (stereo not given), which “activity change, negative = inhibition” value is on record?
Its value is inactive: -4.99%.

Which “activity change, negative = inhibition” value does the source give for `Cc1cccc(OC(C)C(=O)Nc2ccccc2C(=O)N2CCCCC2)c1` (stereo not given) here?
Its value is inactive: -19.1%.

With `CCOc1ccc(Oc2ccc(S(=O)(=O)N3CCOCC3)cc2NC(=O)C2=COCCO2)cc1` as the molecule, how does the Potency read?
Its Potency is inconclusive: 9.2 µM [inhibitor, single point].

With `CN(/N=C/c1cccnc1)c1cnc2ccccc2n1` as the molecule, how does the Potency read?
Its Potency is inconclusive: 2.59 µM [activator, partial curve].

For `C/C(=N/NC(=O)c1ccoc1C)c1cccc(NC(=O)C2CC2)c1`, which Potency is on record?
Its Potency is inconclusive: 11.6 µM [activator, single point].

With `Nc1nc(=S)c2ncn(C3OC(CO)C(O)C3O)c2[nH]1` (stereo not given) as the molecule, how does the “activity change, negative = inhibition” value read?
Its value is inactive: -11.5%.

For `O=C(Nc1ccc(Cl)cc1)N(C1=NCCC1)c1ccc(OC(F)F)cc1`, which Potency is on record?
Its Potency is inconclusive: 23.1 µM [activator, single point].

With `O=C(Nc1nccs1)c1cc(-c2ccccc2)nc2ccccc12` as the molecule, how does the Potency read?
The Potency was inconclusive: 16.4 µM [inhibitor, single point].

For `CCCc1nc2oc3ccccc3c(=O)c2c(=O)n1-c1ccc(C)cc1`, which Potency is on record?
Its Potency is inconclusive: 8.2 µM [activator, partial curve].

With `CC(C)C[C@H](NC(=O)c1[nH]cnc1C(=O)N[C@@H](C)c1ccccc1)C(=O)OC(C)(C)C` as the molecule, how does the Potency read?
The Potency was inconclusive: 20.6 µM [inhibitor, single point].
